# Taken from: PubChem BioAssay AID1159578 (Peter MacCallum Cancer Centre, 2015)
# Assay: 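siRNA pools altering how lymphatic endothelial cells close a scratch wound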 (primary screen)
# System: human lymphatic endothelial cells
# Reagents: siRNA pool against human genes, 40 nM
# Timing: 48 h after transfection
# Read-out: 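Cells stained with dye and imaged after a scratch; covered wound area and nuclei counted, duplicates averaged, migration set against mock wells and turned into a robust z-score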
# Scale: migration robust z-score: higher = faster migration into the scratch; migration relative to mock: higher = more scratch area covered than mock; nuclei per well: higher = more cells in the well
# Rule for the call: 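Pools averaging fewer than 3300 nuclei are never called; remaining pools count as changed when migration robust z lies outside -2 to 2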
# Calls: active = migration changed; inactive = no migration change, or too few cells
# Here is a random part of about 18,000 reagents tested. About 1,030 of them (5.7%) count as active. 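Inactive calls also include pools with fewer than 3300 nuclei, whose migration was not assessed.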 Raw values vary from plate to plate and are shown uncorrected. No sequences are given here.
Target gene,PubChem SID,migration robust z-score,migration class with cell-count check,migration relative to mock,"nuclei per well, duplicate mean",outcome
CCDC28B (coiled-coil domain containing 28B),SID255360228,0.02,migration z between -2 and 2; enough cells,0.89,6400,inactive
LRRC61 (leucine rich repeat containing 61),SID255360131,-1.43,migration z between -2 and 2; enough cells,0.51,5445,inactive
GRAP (GRB2 related adaptor protein),SID255355326,1.77,migration z between -2 and 2; enough cells,1.34,6717,inactive
FAM81B (family with sequence similarity 81 member B),SID255363572,-0.48,migration z between -2 and 2; enough cells,0.76,6416,inactive
MRPS18A (mitochondrial ribosomal protein S18A),SID255358465,0.18,migration z between -2 and 2; enough cells,0.93,4338,inactive
PLCXD3,SID255365194,0.11,migration z between -2 and 2; enough cells,0.91,5907,inactive
KRT4 (keratin 4),SID255350680,-0.29,migration z between -2 and 2; enough cells,0.8,5166,inactive
PRCP (prolylcarboxypeptidase),SID255351771,0.42,migration z between -2 and 2; enough cells,0.88,6209,inactive
FRS2 (fibroblast growth factor receptor substrate 2),SID255355376,-1.1,migration z between -2 and 2; enough cells,0.6,5098,inactive
KCNK16 (potassium two pore domain channel subfamily K member 16),SID255361093,-1.04,migration z between -2 and 2; enough cells,0.6,3791,inactive
UBE2Q2 (ubiquitin conjugating enzyme E2 Q2),SID255362043,1.09,migration z between -2 and 2; enough cells,1.01,4710,inactive
PTPN2 (protein tyrosine phosphatase non-receptor type 2),SID255351945,-0.1,migration z between -2 and 2; enough cells,0.78,6832,inactive
CFAP100 (cilia and flagella associated protein 100),SID255365255,0.88,migration z between -2 and 2; enough cells,1.12,5742,inactive
TENT4A (terminal nucleotidyltransferase 4A),SID255355547,0.68,migration z between -2 and 2; enough cells,0.94,6233,inactive
GPATCH2 (G-patch domain containing 2),SID255358412,0.07,migration z between -2 and 2; enough cells,0.91,4930,inactive
NAALADL1 (N-acetylated alpha-linked acidic dipeptidase like 1),SID255354733,-1.25,migration z between -2 and 2; enough cells,0.56,5370,inactive
FOXK2 (forkhead box K2),SID255350486,1.04,migration z between -2 and 2; enough cells,1,5367,inactive
MEGF6 (multiple EGF like domains 6),SID255349452,0.96,migration z between -2 and 2; enough cells,1.13,4810,inactive
DDX51 (DEAD-box helicase 51),SID255364943,-0.02,migration z between -2 and 2; enough cells,0.8,6179,inactive
NEB (nebulin),SID255351165,0.48,migration z between -2 and 2; enough cells,1.01,5462,inactive
ECRG4 (ECRG4 augurin precursor),SID255361354,-0.16,migration z between -2 and 2; enough cells,0.84,5944,inactive
ZNF148 (zinc finger protein 148),SID255353248,-0.11,migration z between -2 and 2; enough cells,0.78,5246,inactive
BTNL2 (butyrophilin like 2),SID255359054,0.74,migration z between -2 and 2; enough cells,1.08,5614,inactive
CALR (calreticulin),SID255348673,1.14,migration z between -2 and 2; enough cells,1.02,6255,inactive
TMEM60 (transmembrane protein 60),SID255361644,-0.05,migration z between -2 and 2; enough cells,0.87,5510,inactive
SGSH (N-sulfoglucosamine sulfohydrolase),SID255352396,-1.29,migration z between -2 and 2; enough cells,0.55,5032,inactive
PPIL3 (peptidylprolyl isomerase like 3),SID255357953,-0.67,migration z between -2 and 2; enough cells,0.68,5787,inactive
SLCO1A2,SID255352504,-0.44,migration z between -2 and 2; enough cells,0.72,7369,inactive
UPF2 (UPF2 regulator of nonsense mediated mRNA decay),SID255356618,0.02,migration z between -2 and 2; enough cells,0.89,5582,inactive
SEC61B (SEC61 translocon subunit beta),SID255355474,-0.22,migration z between -2 and 2; enough cells,0.83,5598,inactive
KRT26 (keratin 26),SID255365289,1.42,migration z between -2 and 2; enough cells,1.27,3752,inactive
"RAP2B (RAP2B, member of RAS oncogene family)",SID255352044,-0.49,migration z between -2 and 2; enough cells,0.71,7452,inactive
PHLDA3 (pleckstrin homology like domain family A member 3),SID255356366,0.32,migration z between -2 and 2; enough cells,0.97,4988,inactive
GRP (gastrin releasing peptide),SID255350060,1.19,migration z between -2 and 2; enough cells,1.19,5658,inactive
PLD5 (phospholipase D family member 5),SID255364025,1.94,migration z between -2 and 2; enough cells,1.18,5562,inactive
CACNG1 (calcium voltage-gated channel auxiliary subunit gamma 1),SID255348660,-0.75,migration z between -2 and 2; enough cells,0.66,5312,inactive
KLF7 (KLF transcription factor 7),SID255353676,-0.2,migration z between -2 and 2; enough cells,0.76,4450,inactive
ATP5MK (ATP synthase membrane subunit k),SID255361521,-0.44,migration z between -2 and 2; enough cells,0.77,6630,inactive
GUF1 (GTP binding elongation factor GUF1),SID255359728,0.06,migration z between -2 and 2; enough cells,0.9,6194,inactive
HEPH (hephaestin),SID255354601,1.04,migration z between -2 and 2; enough cells,1,5994,inactive
KCNA10 (potassium voltage-gated channel subfamily A member 10),SID255350592,0.5,migration z between -2 and 2; enough cells,0.9,6132,inactive
LOXL2 (lysyl oxidase like 2),SID255350787,-0.5,migration z between -2 and 2; enough cells,0.71,4348,inactive
"RAB22A (RAB22A, member RAS oncogene family)",SID255359372,-0.86,migration z between -2 and 2; enough cells,0.64,5708,inactive
GAB4 (GRB2 associated binding protein family member 4),SID255362823,-0.67,migration z between -2 and 2; enough cells,0.71,7170,inactive
KIF9 (kinesin family member 9),SID255359854,0.49,migration z between -2 and 2; enough cells,0.9,6026,inactive
"GAPT (GRB2 binding adaptor protein, transmembrane)",SID255364102,0.02,migration z between -2 and 2; enough cells,0.89,5266,inactive
GALK2 (galactokinase 2),SID255349817,-2.31,under 3300 nuclei; migration not judged,0.36,3263,inactive
NEXMIF (neurite extension and migration factor),SID255365092,-3.49,migration z below -2; enough cells,-0.02,3583,active
INHBC (inhibin subunit beta C),SID255350502,-0.19,migration z between -2 and 2; enough cells,0.84,6543,inactive
OR6C75 (olfactory receptor family 6 subfamily C member 75),SID255365642,0.57,migration z between -2 and 2; enough cells,1.03,4758,inactive
HTR3B (5-hydroxytryptamine receptor 3B),SID255354093,0.52,migration z between -2 and 2; enough cells,0.9,5190,inactive
PLA2G5 (phospholipase A2 group V),SID255351609,0.52,migration z between -2 and 2; enough cells,0.9,3835,inactive
OR2M3 (olfactory receptor family 2 subfamily M member 3),SID255362737,0.12,migration z between -2 and 2; enough cells,0.92,5175,inactive
RNASEK (ribonuclease K),SID255365908,-0.07,migration z between -2 and 2; enough cells,0.86,6346,inactive
NAALADL2 (N-acetylated alpha-linked acidic dipeptidase like 2),SID255364468,0.88,migration z between -2 and 2; enough cells,0.98,5360,inactive
"SEC31B (SEC31 homolog B, COPII component)",SID255356576,-2.14,under 3300 nuclei; migration not judged,0.32,3285,inactive
RNF115 (ring finger protein 115),SID255356992,-0.13,migration z between -2 and 2; enough cells,0.78,6258,inactive

8 entries from above, reformatted:
| Target gene | PubChem SID | migration robust z-score | migration class with cell-count check | migration relative to mock | nuclei per well, duplicate mean | outcome |
| --- | --- | --- | --- | --- | --- | --- |
| RAP2B (RAP2B, member of RAS oncogene family) | SID255352044 | -0.49 | migration z between -2 and 2; enough cells | 0.71 | 7452 | inactive |
| PHLDA3 (pleckstrin homology like domain family A member 3) | SID255356366 | 0.32 | migration z between -2 and 2; enough cells | 0.97 | 4988 | inactive |
| GRP (gastrin releasing peptide) | SID255350060 | 1.19 | migration z between -2 and 2; enough cells | 1.19 | 5658 | inactive |
| PLD5 (phospholipase D family member 5) | SID255364025 | 1.94 | migration z between -2 and 2; enough cells | 1.18 | 5562 | inactive |
| CACNG1 (calcium voltage-gated channel auxiliary subunit gamma 1) | SID255348660 | -0.75 | migration z between -2 and 2; enough cells | 0.66 | 5312 | inactive |
| KLF7 (KLF transcription factor 7) | SID255353676 | -0.2 | migration z between -2 and 2; enough cells | 0.76 | 4450 | inactive |
| ATP5MK (ATP synthase membrane subunit k) | SID255361521 | -0.44 | migration z between -2 and 2; enough cells | 0.77 | 6630 | inactive |
| GUF1 (GTP binding elongation factor GUF1) | SID255359728 | 0.06 | migration z between -2 and 2; enough cells | 0.9 | 6194 | inactive |
